{"source": "PubChem BioAssay AID493014", "about": "(National Center for Advancing Translational Sciences (NCATS), 2011)", "note": "About 170 (0.05%) of roughly 340,000 compounds were called active. Inconclusive means that the source gave no clear call. Such entries were picked first, then a sample of the others. Calls follow the shape of the dose curve; as a rule, active = well fitted inhibition curve with a large enough effect in the signal ratio, with a control signal flat (not every such curve was filed as active); inconclusive = small, poorly fitted or top-dose-only effect, or effect the other way, or a change in a side signal; inactive = flat fitted curve, though single readings scatter; the % refers to the signal ratio. Where the call is inconclusive, the potency comes from a doubtful curve fit. Potency is read from the fitted curve at half-maximal effect.", "data": [{"assay": "qHTS Assay to Find Inhibitors of Chronic Active B-Cell Receptor Signaling;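 as to activity change, negative = inhibition: plate controls were basal doxycycline-induced cells for no effect and cells given 10 µM MG132 for full effect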", "settings": "ABC-DLBCL IkBa-CBG/CBR reporter, luminescence ratio (green luciferase fused to IkBa over red control in TMD8 lymphoma cells), 4 h; activity change, negative = inhibition: at 46.1 µM (top of the series)", "procedure,_shortened": "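TMD8 human ABC-DLBCL cells with doxycycline-inducible IκBα–green luciferase fusion and unfused red luciferase, in 0.5% FBS medium; compounds up to 46 uM, 4 h at 37C. Green/red luminescence ratio, filter-overlap corrected, fitted to concentration-response curves.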", "values": [{"smiles": "O=C(/C=C/c1cccc([N+](=O)[O-])c1)NC(=S)Nc1cccc(NC(=O)c2ccccc2Cl)c1", "Potency": "inconclusive: 18.4 µM [falling, single point]"}, {"smiles": "CCC(C)n1c(SCc2ccc(C(C)(C)C)cc2)nc2ccsc2c1=O", "note": "(stereo not given)", "activity change, negative = inhibition": "inactive: 0.346%"}, {"smiles": "Cc1ccc(-c2noc(C3CCCCC3)n2)cc1", "activity change, negative = inhibition": "inconclusive: 13.8%"}, {"smiles": "COc1ccc(/C=C2\\SC(=S)N(CCCC(=O)N3CCOCC3)C2=O)cc1OC", "Potency": "inconclusive: 28.2 µM [falling, partial curve]"}, {"smiles": "CCC(=O)OCCNc1cc(SCCC(=O)OC)c2nonc2c1[N+](=O)[O-]", "Potency": "inconclusive: 29.1 µM [falling, single point]"}, {"smiles": "O=C(Nc1ccon1)c1cc2c(s1)CCCC2", "activity change, negative = inhibition": "inconclusive: -1.06%"}, {"smiles": "O=C(CSc1ccc(C(F)(F)F)cn1)Nc1ccccc1", "activity change, negative = inhibition": "inconclusive: -9.5%"}, {"smiles": "COCC1CCN(C(=O)C2CCC(=O)N(C3CCCCCC3)C2)CC1", "note": "(stereo not given)", "activity change, negative = inhibition": "inactive: -4.32%"}, {"smiles": "O=C(CSC1=NS(=O)(=O)c2ccccc2N1)N1CCCCC1", "activity change, negative = inhibition": "inactive: 4.35%"}, {"smiles": "Cc1sc2nc(SCC(=O)c3cc(C)n(CC4CCCO4)c3C)n(C(C)C)c(=O)c2c1C", "note": "(stereo not given)", "activity change, negative = inhibition": "inconclusive: -0.925%"}, {"smiles": "CCOC(=O)c1sc(-c2ccc(OC)cc2)cc1N", "Potency": "inconclusive: 0.0184 µM [rising, full curve, poor fit]"}, {"smiles": "COc1ccc(N2CCN(C(=O)Cc3nn(C)c(=O)c4ccccc34)CC2)cc1", "activity change, negative = inhibition": "inconclusive: 4.29%"}, {"smiles": "COc1ccccc1C(=O)Oc1ccc(C(C)C)cc1", "Potency": "inconclusive: 23.1 µM [falling, single point]"}, {"smiles": "N#CCSc1nnc(COc2cccc3ccccc23)n1-c1cccc(Cl)c1", "Potency": "inconclusive: 14.1 µM [falling, partial curve, poor fit]"}, {"smiles": "OC1(C2(O)CC(c3ccccc3)ON2)CCCCC1", "note": "(stereo not given)", "activity change, negative = inhibition": "inconclusive: -14.4%"}, {"smiles": "CCOC(=O)c1cccc(NC(=O)c2cc3sccc3n2C)c1", "activity change, negative = inhibition": "inconclusive: -0.0097%"}, {"smiles": "COc1ccc(C2=NOC(C(=O)O)C2)cc1", "note": "(stereo not given)", "activity change, negative = inhibition": "inconclusive: 18.1%"}, {"smiles": "COc1ccc(S(=O)(=O)Cc2ccc(C(=O)NCCCN(C)c3ccccc3)o2)cc1", "activity change, negative = inhibition": "inactive: 1.9%"}, {"smiles": "O=C(Nc1ccccc1C(=O)O)c1ccc(NC(=O)C2CCCO2)cc1", "note": "(stereo not given)", "Potency": "inconclusive: 35.5 µM [falling, partial curve, poor fit]"}, {"smiles": "CCCCNC(=O)c1cc2c(=O)n3cccc(C)c3nc2n(CCN2CCOCC2)c1=N", "activity change, negative = inhibition": "inactive: 9.49%"}, {"smiles": "NC(=S)N/N=C/c1ccc2cccc(OCc3ccccc3)c2n1", "Potency": "inconclusive: 20 µM [falling, partial curve]"}, {"smiles": "CSc1nc(N)c(NC(=O)c2ccc(Br)o2)c(=O)[nH]1", "activity change, negative = inhibition": "inactive: 5.02%"}, {"smiles": "COc1cccc2cc(CC(=O)c3ccc(C)c(C)c3)c(=O)oc12", "Potency": "inconclusive: 11.2 µM [falling, partial curve, poor fit]"}, {"smiles": "O=C(Oc1coc(CSc2ncccn2)cc1=O)c1ccc(Br)o1", "Potency": "inconclusive: 25.9 µM [falling, partial curve, poor fit]"}, {"smiles": "O=C(c1ccccc1Cl)N1N=C(c2ccc(Br)cc2)CC1c1nc2ccccc2[nH]1", "note": "(stereo not given)", "activity change, negative = inhibition": "inconclusive: -1.53%"}, {"smiles": "N#CCSc1nnc(Cc2cccs2)n1C1CCCCC1", "activity change, negative = inhibition": "inactive: 2.44%"}, {"smiles": "COc1ccc(-c2cc(C(=O)Nc3ccc(C(N)=O)cc3)c3ccccc3n2)cc1", "Potency": "inconclusive: 35.5 µM [falling, single point]"}, {"smiles": "O=C(COc1cccc(Cl)c1)Nc1ccc(N2CCOCC2)cc1", "activity change, negative = inhibition": "inactive: 3.23%"}, {"smiles": "Cc1ccc(/C=C2\\SC(=S)N(CCCC(=O)N3CCOCC3)C2=O)cc1", "Potency": "inconclusive: 2.24 µM [falling, full curve]"}, {"smiles": "Cc1ccc(C(=O)NC(=S)Nc2ccc(N3CCOCC3)cc2)cc1C", "activity change, negative = inhibition": "inactive: 9.43%"}, {"smiles": "COc1ccc(-c2nn(-c3ccccc3)cc2C(=O)NC(=S)NNC(=O)c2ccncc2)cc1", "Potency": "inconclusive: 6.31 µM [falling, full curve]"}, {"smiles": "COc1cc(C(=O)NCc2nnc(SCC(=O)Nc3cc(C)on3)o2)cc(OC)c1OC", "activity change, negative = inhibition": "inactive: -12.2%"}, {"smiles": "COc1ccc(Nc2nnc(SCC(=O)/C=C3/N(C)c4ccccc4C3(C)C)s2)cc1", "activity change, negative = inhibition": "inconclusive: 0.279%"}, {"smiles": "CCOC(=O)c1ccc(CNC(=O)Cn2nnc(-c3ccccc3)n2)o1", "Potency": "inconclusive: 5.62 µM [falling, partial curve]"}, {"smiles": "O=C(/C=C/c1ccccc1)c1ccc(NC2=NCCCS2)cc1", "Potency": "inconclusive: 29.1 µM [cytotoxic, single point]"}, {"smiles": "COc1ccc(NC(=O)Cc2nc3ccccc3[nH]2)cc1", "activity change, negative = inhibition": "inconclusive: 9.33%"}, {"smiles": "COc1cc([N+](=O)[O-])cc(/C=N/NC(=O)Cn2cncn2)c1O", "Potency": "inconclusive: 25.1 µM [rising, partial curve, poor fit]"}, {"smiles": "COc1ccc(S(=O)(=O)Nc2ccccc2C(F)(F)F)cc1", "activity change, negative = inhibition": "inactive: 12.1%"}, {"smiles": "CNCCCOc1ccc(C)cc1OC", "Potency": "inconclusive: 3.98 µM [falling, full curve]"}, {"smiles": "COCCC1CCCCN1Cc1cn(-c2ccccc2)nc1-c1ccc2c(c1)OCO2", "note": "(stereo not given)", "Potency": "inconclusive: 10 µM [falling, partial curve, poor fit]"}, {"smiles": "Cc1c(Cl)cnc(NC(=O)COC(=O)C2CC3CCCC(C2)C3=O)c1Cl", "note": "(stereo not given)", "activity change, negative = inhibition": "inconclusive: 0.879%"}, {"smiles": "COc1ccc(NC(=O)CN(C)C(=O)c2oc3c(ccc4ccccc43)c2C)cc1", "activity change, negative = inhibition": "inconclusive: -4.62%"}, {"smiles": "CCOC(=O)c1c(C)[nH]c(C(=O)OCC(=O)Nc2sccc2C(N)=O)c1C", "activity change, negative = inhibition": "inconclusive: -0.0546%"}, {"smiles": "Cc1ccc(S(=O)(=O)N2CCCC2C(=O)O)cc1", "note": "(stereo not given)", "activity change, negative = inhibition": "inconclusive: 11.5%"}, {"smiles": "Cc1cc(NC(=O)c2ccccc2-c2ccccc2C(=O)O)no1", "activity change, negative = inhibition": "inconclusive: 2.06%"}, {"smiles": "COC(=O)c1ccc(C(=O)NC(=S)Nc2nc3c(s2)CCCC3)cc1", "Potency": "inconclusive: 23.1 µM [falling, partial curve]"}, {"smiles": "O=C(OCCOc1ccc(F)cc1)c1ccc(S(=O)(=O)N2CCCC2)cc1", "activity change, negative = inhibition": "inactive: 4.05%"}, {"smiles": "COc1ccc(N2C(=O)CC(N(C)CCc3ccc(OC)c(OC)c3)C2=O)cc1", "note": "(stereo not given)", "activity change, negative = inhibition": "inactive: 9.16%"}, {"smiles": "Cc1ccc(-n2c(C)cc(C(=O)OCC(=O)N(C)C3CCS(=O)(=O)C3)c2C)cc1", "note": "(stereo not given)", "Potency": "inconclusive: 8.2 µM [falling, partial curve]"}, {"smiles": "O=[N+]([O-])c1cccc(-c2cnc3ccccc3n2)c1", "activity change, negative = inhibition": "inconclusive: 20.2%"}, {"smiles": "O=C(NCCc1ccc(Cl)cc1)c1cnccn1", "activity change, negative = inhibition": "inconclusive: 6.31%"}, {"smiles": "COc1ccc(/C=N\\NC(=O)c2sc(N)nc2C)cc1OC", "Potency": "inconclusive: 31.6 µM [rising, single point]"}, {"smiles": "CC(C)n1c(C(F)(F)F)nc2cc(C(=O)N3CCC(O)CC3)ccc21", "activity change, negative = inhibition": "inactive: -10.1%"}, {"smiles": "CCOC(=O)Cn1nc(C)n(-c2c(C)cccc2C)c1=O", "activity change, negative = inhibition": "inactive: 0.0358%"}, {"smiles": "O=C(NC1CC1)C1C2C3C4CC5C3C5C4C12", "note": "(stereo not given)", "activity change, negative = inhibition": "inconclusive: -0.849%"}, {"smiles": "O=C(NCc1ccc(-c2nc3ccccc3s2)cc1)c1ccco1", "activity change, negative = inhibition": "inconclusive: 14.8%"}, {"smiles": "COC(=O)c1ccc(CSc2nnc(Nc3ccccc3OC)s2)o1", "Potency": "inconclusive: 11.2 µM [falling, partial curve]"}, {"smiles": "O=C(NCCc1c[nH]c2ccccc12)c1cc2ccccc2oc1=O", "Potency": "inconclusive: 11.2 µM [falling, partial curve]"}, {"smiles": "COc1ccc(C(=O)CCc2nc3ccccc3s2)cc1", "activity change, negative = inhibition": "inconclusive: 10.8%"}, {"smiles": "Clc1ccc(CN2CCC(Cc3ccccc3)CC2)cc1", "Potency": "inconclusive: 29.1 µM [rising, partial curve, poor fit]"}, {"smiles": "CCOC(=O)CCP(=O)(O)C(O)c1ccccc1", "note": "(stereo not given)", "activity change, negative = inhibition": "inconclusive: -0.884%"}, {"smiles": "CCOc1ccc(N(C(=O)c2snc(C(N)=O)c2N)C(C)C(=O)NC2CCCCC2)cc1", "note": "(stereo not given)", "activity change, negative = inhibition": "inconclusive: -2.74%"}, {"smiles": "O=C(O)CN1C2=NCCCN2c2ccccc21", "activity change, negative = inhibition": "inconclusive: 16.6%"}, {"smiles": "Cc1ccc(NC(=O)COc2ccc(N(C)C(=O)C(C)(C)C)cc2)cc1S(=O)(=O)N1CCCCC1", "activity change, negative = inhibition": "inconclusive: -3.2%"}, {"smiles": "Cc1ccccc1Nc1nc(N)nc(-c2oc3ccccc3c2C)n1", "Potency": "inconclusive: 31.6 µM [falling, single point]"}, {"smiles": "Cc1ccc(NC(=O)CN(C)C(=O)C(C)OC(=O)CNC(=O)c2ccc(Cl)c([N+](=O)[O-])c2)cc1", "note": "(stereo not given)", "activity change, negative = inhibition": "inactive: -0.392%"}, {"smiles": "Cc1oc2cc(O)ccc2c(=O)c1Oc1ccc(F)cc1", "activity change, negative = inhibition": "inconclusive: -3.88%"}, {"smiles": "CCCN(CCC)C(=O)c1cc(S(=O)(=O)N2CCCCC2)c[nH]1", "Potency": "inconclusive: 11.2 µM [falling, partial curve, poor fit]"}, {"smiles": "CCOCC(=O)Nc1nc2ccc(S(C)(=O)=O)cc2s1", "activity change, negative = inhibition": "inconclusive: -0.0141%"}, {"smiles": "COc1cc2nc(CN3CCC(Cc4ccccc4)CC3)[nH]c(=O)c2cc1OC", "activity change, negative = inhibition": "inactive: 0.709%"}, {"smiles": "CSc1nc(-c2ccccc2)nc(NC(=O)C(C)C)c1C(C)=O", "activity change, negative = inhibition": "inconclusive: 12.2%"}, {"smiles": "COc1ccc2nc(-c3ccc(N)cc3)[nH]c2c1", "Potency": "inconclusive: 23.1 µM [falling, partial curve]"}, {"smiles": "COc1ccc(NC(=O)C(c2ccc(C)cc2)N(C)C(=O)Cc2cccs2)cc1", "note": "(stereo not given)", "activity change, negative = inhibition": "inactive: -3.53%"}, {"smiles": "O=C(O)c1ccc(-n2c(-c3cc(-c4ccco4)[nH]n3)n[nH]c2=S)cc1", "activity change, negative = inhibition": "inactive: -19%"}, {"smiles": "Cc1cccc(NC(=O)Nc2ccc3c(c2)N(C)C(=O)CS3)n1", "activity change, negative = inhibition": "inconclusive: 13%"}, {"smiles": "O=C(N/N=C/c1ccc2c(c1)OCO2)C1CC1", "activity change, negative = inhibition": "inconclusive: -13.8%"}, {"smiles": "O=c1cc(-c2ccccc2)cc(-c2ccccc2)n1CCO", "activity change, negative = inhibition": "inactive: -23.3%"}, {"smiles": "COc1ccc(/C=C\\C(=O)Oc2cccc(/C=N/NC(=O)Cc3ccc(OC)c(OC)c3)c2)cc1", "activity change, negative = inhibition": "inconclusive: 12.1%"}, {"smiles": "CC(=O)c1sc(NC(=O)c2cc(S(=O)(=O)N3CCOCC3)ccc2F)nc1C", "activity change, negative = inhibition": "inconclusive: 6.86%"}, {"smiles": "O=S(=O)(Nc1ccc(-c2nc3cccnc3s2)cc1)c1ccccc1F", "Potency": "inconclusive: 0.891 µM [rising, full curve, poor fit]"}]}]}
